This assay has as its target T1, ubiquitin-specific protease 21 (USP21) (human (endogenous in QBC939 and HuCCT1)) (UniProt Q9UK80).
T1 sequence: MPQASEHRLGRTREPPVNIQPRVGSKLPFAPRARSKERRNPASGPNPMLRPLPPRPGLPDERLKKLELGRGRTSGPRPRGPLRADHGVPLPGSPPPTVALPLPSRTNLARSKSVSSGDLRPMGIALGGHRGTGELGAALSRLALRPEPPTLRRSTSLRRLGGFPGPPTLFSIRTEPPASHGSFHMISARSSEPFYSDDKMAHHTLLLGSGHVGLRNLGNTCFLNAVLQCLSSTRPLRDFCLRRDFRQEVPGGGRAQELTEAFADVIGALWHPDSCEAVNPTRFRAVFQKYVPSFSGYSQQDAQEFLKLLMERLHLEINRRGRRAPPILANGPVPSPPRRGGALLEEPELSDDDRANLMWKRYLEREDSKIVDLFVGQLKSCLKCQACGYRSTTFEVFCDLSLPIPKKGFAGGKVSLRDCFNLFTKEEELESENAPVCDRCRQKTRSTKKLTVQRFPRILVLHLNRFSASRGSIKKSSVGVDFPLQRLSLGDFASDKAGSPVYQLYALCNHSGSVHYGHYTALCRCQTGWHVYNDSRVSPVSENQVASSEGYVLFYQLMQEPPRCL
Kind of assay: affinity purification with mass spectrometry; IP of total protein of CCA cells with USP21 antibody (sc-515911) and Protein A/G-agarose beads, then mass spectrometry.

Sequences of proteins named here, by UniProt entry; tags and fusion partners are left off.
UniProt P06733: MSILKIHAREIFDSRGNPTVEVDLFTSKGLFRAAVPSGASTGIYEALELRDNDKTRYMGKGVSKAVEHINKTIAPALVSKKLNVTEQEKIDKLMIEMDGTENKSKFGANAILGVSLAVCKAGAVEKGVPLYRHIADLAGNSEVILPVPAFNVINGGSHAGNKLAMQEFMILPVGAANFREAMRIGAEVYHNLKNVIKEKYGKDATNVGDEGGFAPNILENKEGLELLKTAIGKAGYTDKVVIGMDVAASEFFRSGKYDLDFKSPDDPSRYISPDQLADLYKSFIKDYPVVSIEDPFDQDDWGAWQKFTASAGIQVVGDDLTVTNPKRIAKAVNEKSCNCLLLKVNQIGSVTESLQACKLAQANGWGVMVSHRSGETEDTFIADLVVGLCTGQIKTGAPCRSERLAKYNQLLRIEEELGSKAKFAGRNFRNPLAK

Results are given in words; binding and its absence hold for the method and conditions named. Binding seen in cells or lysates may run through a third protein. A yes stands for co-enrichment or nearness to the bait. Other partners may have been found.

Binding data for 1 substance are collected here from PMC10878141.

As for “alpha-Enolase 1 (ENO1) (from UniProt P06733 1-434) (enzyme)”, the binding result is “binds”.
